Our source for the binding values is article PMC11073785, “YeeD is an essential partner for YeeE-mediated thiosulfate uptake in bacteria and regulates thiosulfate ion decomposition” (PLOS Biology, 2024).

The chains behind the UniProt entries cited, without tags or fusion partners. Where a name states a change or a piece, a line headed by the entry shows the natural chain unless it says otherwise.
UniProt G0GAP6: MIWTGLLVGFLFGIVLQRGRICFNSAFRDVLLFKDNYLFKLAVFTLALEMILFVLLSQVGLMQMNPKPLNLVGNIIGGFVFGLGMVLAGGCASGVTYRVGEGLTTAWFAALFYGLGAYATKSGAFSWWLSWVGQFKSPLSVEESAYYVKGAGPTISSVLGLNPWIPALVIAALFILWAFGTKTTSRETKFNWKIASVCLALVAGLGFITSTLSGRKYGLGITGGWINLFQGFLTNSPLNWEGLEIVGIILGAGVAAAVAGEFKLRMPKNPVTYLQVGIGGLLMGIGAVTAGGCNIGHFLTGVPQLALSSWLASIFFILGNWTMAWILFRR

No constants are given. Whether binding was seen depends on the method and setting. A result given as binding can be weak or reduced; the word gives no strength.

Test [1] deals with StYeeD region of the StYeeE(C22A)-StYeeD fusion protein (Spirochaeta thermophila) (UniProt G0GAP7). The test is described as follows: crystal structure; StYeeE(C22A) and StYeeD (or StYeeD(L45A)) joined on one chain by a 40-residue linker; lipidic cubic phase (monoolein), 20°C; X-ray, SPring-8 BL32XU; both purified.
Test [2] has as its target StYeeD(L45A) region of the StYeeE(C22A)-StYeeD(L45A) fusion protein (Spirochaeta thermophila) (UniProt G0GAP7). Described as above.

Turning to “StYeeE(C22A) region of the StYeeE(C22A)-StYeeD fusion proteins (from UniProt G0GAP6 1-330) (domain or fragment)”, the binding entry in test [1] and in test [2] was “binds” in each case.
